Holding throughout (assay): log2 fold change, soluble protein after heating vs DMSO (PISA); higher = thermal stabilisation; K562 cells, 10 uM, 30 min; active = over 0.2 and 3.5 SD of the protein, either way, in both replicates (recomputed)
Compound in assay [1]: CC1=C(SC2=C1C(=N[C@H](C3=NN=C(N32)C)CC(=O)N)C4=CC=C(C=C4)Cl)C
An outline of the steps:
(§1)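 Thermal stability values are relative to control samples and come from duplicates. They are expressed as log2 fold changes. For measurement, K562 cells (2×10^6 cells/mL) received 10 μM compound for 30 min, and aliquots were heated for 3 min over 48°C-58°C, pooled, and extracted at 4°C in PBS with 0.5% NP-40. Soluble protein, the supernatant after 21,000xg for 90 min, was quantified by TMTpro 16plex LC-MS/MS with equalised channel sums.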

The chains behind the UniProt entries cited, without tags or fusion partners. Where a name states a change or a piece, a line headed by the entry shows the natural chain unless it says otherwise.
UniProt Q8TB72: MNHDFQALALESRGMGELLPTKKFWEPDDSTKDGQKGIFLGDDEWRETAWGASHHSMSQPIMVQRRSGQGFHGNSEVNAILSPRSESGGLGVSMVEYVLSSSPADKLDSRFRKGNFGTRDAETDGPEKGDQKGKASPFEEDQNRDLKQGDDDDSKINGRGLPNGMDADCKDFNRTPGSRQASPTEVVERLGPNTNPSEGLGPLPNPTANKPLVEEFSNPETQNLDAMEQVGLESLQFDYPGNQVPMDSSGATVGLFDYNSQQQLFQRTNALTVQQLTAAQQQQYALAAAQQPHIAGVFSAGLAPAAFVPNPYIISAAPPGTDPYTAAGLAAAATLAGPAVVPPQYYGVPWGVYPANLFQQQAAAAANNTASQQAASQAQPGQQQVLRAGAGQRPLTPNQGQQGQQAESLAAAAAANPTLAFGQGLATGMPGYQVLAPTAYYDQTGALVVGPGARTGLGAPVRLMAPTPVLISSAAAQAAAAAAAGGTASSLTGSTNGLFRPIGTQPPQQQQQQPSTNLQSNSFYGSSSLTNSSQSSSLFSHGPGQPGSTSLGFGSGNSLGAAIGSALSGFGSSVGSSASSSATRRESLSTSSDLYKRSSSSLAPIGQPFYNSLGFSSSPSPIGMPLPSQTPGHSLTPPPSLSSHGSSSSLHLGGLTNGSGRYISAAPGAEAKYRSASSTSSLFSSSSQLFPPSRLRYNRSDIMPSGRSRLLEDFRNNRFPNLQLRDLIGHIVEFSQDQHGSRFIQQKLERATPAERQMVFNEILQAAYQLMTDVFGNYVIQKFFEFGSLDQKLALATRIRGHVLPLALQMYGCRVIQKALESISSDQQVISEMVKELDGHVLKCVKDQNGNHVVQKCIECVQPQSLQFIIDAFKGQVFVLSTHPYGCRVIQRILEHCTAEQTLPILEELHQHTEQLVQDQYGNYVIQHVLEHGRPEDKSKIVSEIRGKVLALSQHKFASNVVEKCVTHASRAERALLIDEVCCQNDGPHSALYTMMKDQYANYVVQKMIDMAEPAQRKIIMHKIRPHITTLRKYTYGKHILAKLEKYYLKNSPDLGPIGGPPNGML
UniProt P35236: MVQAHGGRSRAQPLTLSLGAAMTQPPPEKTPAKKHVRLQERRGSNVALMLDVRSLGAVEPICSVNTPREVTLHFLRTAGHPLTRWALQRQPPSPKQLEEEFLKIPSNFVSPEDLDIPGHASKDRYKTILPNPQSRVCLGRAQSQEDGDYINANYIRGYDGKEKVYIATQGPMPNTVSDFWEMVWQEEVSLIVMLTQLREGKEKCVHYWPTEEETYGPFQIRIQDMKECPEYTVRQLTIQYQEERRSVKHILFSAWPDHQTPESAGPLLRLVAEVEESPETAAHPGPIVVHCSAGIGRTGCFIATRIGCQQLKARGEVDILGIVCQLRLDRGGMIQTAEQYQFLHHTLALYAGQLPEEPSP
UniProt P40306: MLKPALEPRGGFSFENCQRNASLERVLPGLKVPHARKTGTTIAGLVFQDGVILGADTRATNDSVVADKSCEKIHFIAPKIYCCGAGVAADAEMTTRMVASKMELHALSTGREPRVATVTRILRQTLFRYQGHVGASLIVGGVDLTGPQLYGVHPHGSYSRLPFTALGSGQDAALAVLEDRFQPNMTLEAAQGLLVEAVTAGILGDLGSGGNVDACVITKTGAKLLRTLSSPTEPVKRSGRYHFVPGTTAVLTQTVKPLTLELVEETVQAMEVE
UniProt P32322: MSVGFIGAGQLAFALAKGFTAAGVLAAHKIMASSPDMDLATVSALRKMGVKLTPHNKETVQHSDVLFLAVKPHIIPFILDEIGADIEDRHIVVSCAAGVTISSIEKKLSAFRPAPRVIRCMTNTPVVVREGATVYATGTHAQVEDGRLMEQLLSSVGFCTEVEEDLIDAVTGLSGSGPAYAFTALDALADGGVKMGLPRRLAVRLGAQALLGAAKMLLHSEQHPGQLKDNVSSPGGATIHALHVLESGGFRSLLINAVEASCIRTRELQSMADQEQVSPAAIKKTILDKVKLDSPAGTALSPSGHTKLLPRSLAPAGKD
UniProt O75365, whole entry, looked up: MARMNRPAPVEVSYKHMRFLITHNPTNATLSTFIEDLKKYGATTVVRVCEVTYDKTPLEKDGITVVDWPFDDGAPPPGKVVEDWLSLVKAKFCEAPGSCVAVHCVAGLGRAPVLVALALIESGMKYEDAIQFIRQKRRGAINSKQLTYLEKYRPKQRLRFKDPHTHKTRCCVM
UniProt P28062: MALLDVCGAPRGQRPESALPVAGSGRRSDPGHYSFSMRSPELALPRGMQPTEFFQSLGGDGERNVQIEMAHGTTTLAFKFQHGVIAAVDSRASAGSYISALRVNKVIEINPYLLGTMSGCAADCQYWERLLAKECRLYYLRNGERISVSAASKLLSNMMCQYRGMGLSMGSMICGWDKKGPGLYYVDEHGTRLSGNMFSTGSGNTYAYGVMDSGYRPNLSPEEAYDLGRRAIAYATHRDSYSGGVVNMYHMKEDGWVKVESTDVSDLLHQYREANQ
UniProt Q7Z5L2: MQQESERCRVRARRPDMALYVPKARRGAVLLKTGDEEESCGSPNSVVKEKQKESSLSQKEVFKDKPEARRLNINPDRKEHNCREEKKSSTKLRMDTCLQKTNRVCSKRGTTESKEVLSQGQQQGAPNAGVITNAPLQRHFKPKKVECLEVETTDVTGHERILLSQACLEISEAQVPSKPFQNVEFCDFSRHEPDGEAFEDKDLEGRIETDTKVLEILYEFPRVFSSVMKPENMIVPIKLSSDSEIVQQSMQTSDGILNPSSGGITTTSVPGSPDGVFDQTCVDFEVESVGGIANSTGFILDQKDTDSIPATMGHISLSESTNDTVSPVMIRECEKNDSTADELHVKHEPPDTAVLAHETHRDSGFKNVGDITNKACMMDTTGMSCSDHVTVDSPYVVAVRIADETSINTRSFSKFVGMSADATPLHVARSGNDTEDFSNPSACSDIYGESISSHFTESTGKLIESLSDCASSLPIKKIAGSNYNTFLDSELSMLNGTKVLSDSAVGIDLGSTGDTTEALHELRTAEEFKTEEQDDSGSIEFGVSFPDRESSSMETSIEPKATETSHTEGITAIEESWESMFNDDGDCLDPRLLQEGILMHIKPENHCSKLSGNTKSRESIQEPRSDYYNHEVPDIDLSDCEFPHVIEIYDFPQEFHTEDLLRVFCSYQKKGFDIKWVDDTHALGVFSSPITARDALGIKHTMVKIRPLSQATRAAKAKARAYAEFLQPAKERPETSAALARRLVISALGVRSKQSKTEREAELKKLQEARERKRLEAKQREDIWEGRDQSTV
UniProt Q9BQI7: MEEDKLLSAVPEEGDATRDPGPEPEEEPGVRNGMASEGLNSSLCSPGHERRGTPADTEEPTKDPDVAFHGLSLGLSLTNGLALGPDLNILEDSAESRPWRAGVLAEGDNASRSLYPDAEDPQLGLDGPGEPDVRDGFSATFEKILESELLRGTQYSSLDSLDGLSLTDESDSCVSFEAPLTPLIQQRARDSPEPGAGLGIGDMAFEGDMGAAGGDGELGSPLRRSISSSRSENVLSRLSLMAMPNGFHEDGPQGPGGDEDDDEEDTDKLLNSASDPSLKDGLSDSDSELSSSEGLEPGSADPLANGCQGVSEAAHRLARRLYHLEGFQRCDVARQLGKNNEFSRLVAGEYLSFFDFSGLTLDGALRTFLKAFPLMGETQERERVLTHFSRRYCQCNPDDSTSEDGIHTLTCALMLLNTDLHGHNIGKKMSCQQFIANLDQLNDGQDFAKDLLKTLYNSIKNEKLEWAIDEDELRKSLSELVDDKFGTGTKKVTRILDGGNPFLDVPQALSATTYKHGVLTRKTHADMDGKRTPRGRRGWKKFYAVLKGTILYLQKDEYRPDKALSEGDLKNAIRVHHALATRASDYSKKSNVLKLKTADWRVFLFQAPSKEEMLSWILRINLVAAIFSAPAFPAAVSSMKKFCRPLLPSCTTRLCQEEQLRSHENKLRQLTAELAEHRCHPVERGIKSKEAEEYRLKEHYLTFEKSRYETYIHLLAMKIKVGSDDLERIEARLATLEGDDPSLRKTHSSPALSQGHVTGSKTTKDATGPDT
UniProt Q13308: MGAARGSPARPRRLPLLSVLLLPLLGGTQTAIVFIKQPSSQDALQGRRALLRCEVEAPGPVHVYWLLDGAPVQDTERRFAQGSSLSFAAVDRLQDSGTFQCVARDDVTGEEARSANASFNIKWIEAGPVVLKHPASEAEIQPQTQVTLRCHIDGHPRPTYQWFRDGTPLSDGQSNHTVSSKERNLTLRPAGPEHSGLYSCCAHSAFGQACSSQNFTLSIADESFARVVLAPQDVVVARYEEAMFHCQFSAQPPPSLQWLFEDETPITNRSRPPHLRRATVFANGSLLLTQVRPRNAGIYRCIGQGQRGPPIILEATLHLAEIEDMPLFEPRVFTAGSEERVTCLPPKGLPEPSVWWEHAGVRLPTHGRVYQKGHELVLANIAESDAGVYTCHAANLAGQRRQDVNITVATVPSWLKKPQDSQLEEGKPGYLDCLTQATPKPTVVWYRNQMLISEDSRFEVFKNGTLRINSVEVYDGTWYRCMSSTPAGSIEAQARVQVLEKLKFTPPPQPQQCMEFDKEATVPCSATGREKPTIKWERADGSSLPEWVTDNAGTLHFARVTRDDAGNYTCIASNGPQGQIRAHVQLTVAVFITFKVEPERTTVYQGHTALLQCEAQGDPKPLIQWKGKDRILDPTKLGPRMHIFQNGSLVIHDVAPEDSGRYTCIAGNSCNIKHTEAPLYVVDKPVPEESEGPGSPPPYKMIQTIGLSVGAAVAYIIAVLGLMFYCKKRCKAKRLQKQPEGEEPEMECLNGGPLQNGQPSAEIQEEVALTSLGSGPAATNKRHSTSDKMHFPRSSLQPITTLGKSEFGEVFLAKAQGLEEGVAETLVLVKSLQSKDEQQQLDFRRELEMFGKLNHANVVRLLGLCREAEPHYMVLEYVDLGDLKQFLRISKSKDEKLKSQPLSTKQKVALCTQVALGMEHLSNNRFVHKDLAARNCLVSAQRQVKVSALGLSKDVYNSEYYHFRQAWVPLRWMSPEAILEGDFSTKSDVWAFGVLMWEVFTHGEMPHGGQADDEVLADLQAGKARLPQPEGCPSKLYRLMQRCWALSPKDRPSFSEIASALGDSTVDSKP

Compound in assay [2]: c1ccc([C@@H]2C[C@H]2NC2CCNCC2)cc1
Summed up: as §1

Compound in assay [3]: CC1=C2C(=CC=C1)N=C(N(C2=O)C3=CC=CC=C3C)CN4C=NC5=C(N=CN=C54)N
Summed up:
as §1

Compound in assay [4]: C1=CC=C(C=C1)[C@H](COC2=CC3=C(C=C2)NC(=O)N3)NC(=O)C4=CC=CN(C4=O)CC5=CC(=C(C=C5)F)F
Summed up:
as §1

Compound in assay [5]: Cc1sc2c(c1C)C(c1ccc(Cl)cc1)=N[C@@H](CC(=O)OC(C)(C)C)c1nnc(C)n1-2
An outline of the steps: as §1

Some of the results follow.

Consider PUM2 isoform 3 (UniProt Q8TB72), for which the values for the log2 fold change in assay [1] and in assay [2] were inactive: 0.086 and inactive: -0.107, respectively.
PTPN7 isoform 3 (UniProt P35236): the log2 fold change was inactive: -0.077 in assay [1], inactive: 0.029 in assay [3] and inactive: -0.137 in assay [2].
On to PSMB10 (UniProt P40306), for which, in assay [3], the log2 fold change is inactive: 0.016.
With PSMA3 (UniProt G3V4X5), the log2 fold change in assay [4] was inactive: -0.073; in assay [3] it was inactive: 0.147.
For PYCR1 isoform 3 (UniProt P32322), the values for the log2 fold change in assay [4], in assay [1] and in assay [5] were inactive: 0.031, inactive: 0.025 and inactive: -0.002, respectively.
As to PTP4A3 (UniProt O75365), the log2 fold change in assay [4] is inactive: 0.037; in assay [3], inactive: 0.391.
Take PSMB8 (UniProt P28062): the figures for the log2 fold change in assay [1] and in assay [2] were inactive: -0.044 and inactive: 0.062, respectively.
For the target R3HCC1L (UniProt Q7Z5L2), the log2 fold change is inactive: -0.107 in assay [1], inactive: 0.002 in assay [3], inactive: 0.287 in assay [5] and inactive: 0.114 in assay [2].
Regarding PSD2 (UniProt Q9BQI7), in assay [3], the log2 fold change was inactive: 0.366.
In the case of PTK7 isoform 6 (UniProt Q13308), the log2 fold change in assay [4] is inactive: -0.032; in assay [1], inactive: 0.092; in assay [3], inactive: -0.005; in assay [5], inactive: 0.061; in assay [2] it was inactive: 0.051.

Values taken from the supplement of paper PMC10849652.
